Data taken from ChEMBL document CHEMBL3988442, “University of Dundee, Small-Polar-MMV Screening Library” (2021).

Results are given as percent effect.
How 0% and 100% were set is not recorded. Most values in the screen are low, and negative values occur.
This is an unselected part of the compounds tested.

A: 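Whole-cell assay for inhibitors of Mycobacterium tuberculosis growth, labelled Cornell in the record; the read-out is not stated. The concentration is filed as 10 mM, unlikely as a test dose, so the dose is not known. The record gives no direction; compounds strong in two other growth screens of this library score well above the rest, so higher reads as stronger inhibition. Of about 53,000 compounds tested this way, about 900 (1.7%) reached 50% or more in at least one test.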
B: 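Assay on Mycobacterium tuberculosis, filed only as a heat shock assay from Cornell; the read-out is not stated. The concentration is filed as 10 mM, unlikely as a test dose, so the dose is not known. Direction is inferred from retests: higher values go with stronger inhibition. Size under these conditions: about 69,000 compounds, about 930 of them at 50% or above in at least one test.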

{"compound": "CCn1ncc2[nH]c(-c3ccc(OC)c(COC)c3)nc21", "A": 23.75, "B": -3.332}
{"compound": "CCN(C)c1ncnc2c1CCN(Cc1ccsc1)CC2.O=C(O)C(F)(F)F.O=C(O)C(F)(F)F", "B": -17.94}
{"compound": "Cc1cc(CN2CCN(C(=O)C(C(C)C)n3cncn3)CC2)no1", "stereo": "centres unmarked", "A": 2.994, "B": 1.043}
{"compound": "Cc1ccc(C(C)NC(=O)CSCC(N)=O)cc1", "stereo": "centres unmarked", "B": 15.53}
{"compound": "Cc1nonc1C1CCCN1C(=O)c1cc2n(n1)CCCNC2", "stereo": "centres unmarked", "A": -37.72, "B": -13.04}
{"compound": "N#Cc1cccc(CNc2ccc(F)cc2OCCO)c1", "A": 4.671, "B": -13.24}
{"compound": "CC(=O)N(Cc1ncc(C)o1)C1CCN(Cc2nccn2C)C1", "stereo": "centres unmarked", "B": -9.576}
{"compound": "Cc1cc(C)n(CC(C)CNC(=O)[C@@H](C)NC(=O)OC(C)(C)C)n1", "stereo": "some centres unmarked", "A": 9.706, "B": -7.042}
{"compound": "CC(c1cc(F)ccc1F)N(C)CCS(=O)(=O)CCC(N)=O", "stereo": "centres unmarked", "A": 19.33, "B": 49.2}
{"compound": "Cc1cnn(CCNCC(=O)Nc2ccc(Br)cn2)c1", "B": 2.674}
{"compound": "CCN(C(=O)CCc1ccccc1)C1CC(=O)NC1=O", "stereo": "centres unmarked", "A": -9.596, "B": 1.236}
{"compound": "CCn1nccc1S(=O)(=O)N1CCC2(CCCN(C(C)C)C2=O)C1", "stereo": "centres unmarked", "A": 9.925, "B": -7.66}
{"compound": "CCCn1cnc2c1CN(S(=O)(=O)Cc1ccccc1)[C@H](C(=O)OC)C2", "A": -6.95, "B": -0.08717}
{"compound": "N#Cc1cc(C#N)c(SCC(=O)Nc2ccc(F)cc2)nc1N", "A": 17.07, "B": 8.913}
{"compound": "CC(C)N1CCC(CC(=O)N2CCC(C(O)c3nccn3C)CC2)CC1", "stereo": "centres unmarked", "B": 13.38}
{"compound": "CCc1nc(CN2CCCN(C(=O)CCSC)CC2)cs1", "A": 6.077, "B": 44.1}
{"compound": "O=C(Cc1ccc(F)cc1)NCCNc1cc(N2CCCC2)cnn1", "A": -15.42, "B": -12.33}
{"compound": "COc1ccc2[nH]c3c(c2c1)CN(c1cc(NCCO)nc(N)n1)CC3", "B": 5.367}
{"compound": "CC(C)Cc1noc(CN2CCN(C(=O)c3ccccc3F)CC2)n1", "A": -56.04, "B": -36.44}
{"compound": "Cc1cc(C)n(CCNCc2cc(-c3ccccc3)c[nH]c2=O)n1", "A": 49.12, "B": 6.153}

For reference, 2 entries once more:

Compound	A	B
O=C(Cc1ccc(F)cc1)NCCNc1cc(N2CCCC2)cnn1	-15.42%	-12.33%
CCn1nccc1S(=O)(=O)N1CCC2(CCCN(C(C)C)C2=O)C1 (centres unmarked)	9.925%	-7.66%